Reference: paper PMC7993727, “Discovery of a novel AR/HDAC6 dual inhibitor for prostate cancer treatment” (Aging (Albany NY), 2021)

How the values were obtained:
Assay in all cases: cell proliferation assay
Assay type in all cases: cell-based
LNCaP cells = conditions: Homo sapiens, 72 h, read-out: IC50 values proliferation LNCaP
Procedure: (§1) After 7 days, cell viability was measured using a CellTiter 96® AQueous One Solution Cell Proliferation Assay kit (Promega).

VCaP cells = conditions: Homo sapiens, 168 h, read-out: IC50 values proliferation VCaP
Procedure: as §1

DU145 cells = conditions: Homo sapiens, DU-145, 72 h, read-out: IC50 values proliferation DU145
HEK293 cells = conditions: Homo sapiens, HEK293, 72 h, read-out: IC50 values proliferation HEK293

- IC50 (LNCaP cells): 25.8 µM
- IC50 (VCaP cells): 11 µM
- IC50 (DU145 cells): > 50 µM
Compound: CNC(=O)c1ccc(N2C(=S)N(c3ccc(C#N)c(C(F)(F)F)c3)C(=O)C2(C)C)cc1F [MDV3100, reference compound]
- IC50 (HEK293 cells): > 50 µM
